Taken from: PubChem BioAssay AID652243 (Drosophila RNAi Screening Center, 2013)

Test: 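Knock-downs that decrease or increase androgen receptor reporter signal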 (primary screen)
Cell system: Drosophila S2R+ cells
Knock-down reagent: long dsRNA against Drosophila genes
Timing: 72 h (48 h, then 24 h hormone)
Conditions: synthetic androgen R1881 at 10 nM for 24 h
Detection: 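Per-well raw luminescence of the androgen-driven firefly reporter and of the Renilla control, two replicates each, without normalisation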
Direction: firefly reporter light: higher = more light from androgen-responsive reporter; Renilla control light: higher = more constitutive control signal (cell number, transfection)
Active means: 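Hit when the log firefly-to-Renilla ratio dropped or increased by a fixed fold versus the mean of GFP or LacZ controls across duplicate plates; lowering cut given as 1.5 and as 3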
Meaning of the calls: active = hit: reporter lowered or raised; inactive = no hit
The deposit covers about 24,000 reagents; this is a random part of those that have a named target and a result. Of all reagents, 246 (1%) are marked active. 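Plates not normalised; calls are printed but the firefly/Renilla ratio behind them is not deposited; fold cut for lowering reported inconsistently.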 Raw values are not corrected between plates. A number with no mark means an inactive call. The numbers tell different reagents against one gene apart. Names joined by + are all predicted targets of the reagent. Not given: the amount of reagent.

| Gene | reagent no. | firefly reporter light, replicate 1 | firefly reporter light, replicate 2 | Renilla control light, replicate 1 | Renilla control light, replicate 2 |
| --- | --- | --- | --- | --- | --- |
| CG10576 | 1 | 9.94e5 | 8.23e5 | 1.31e6 | 1.78e6 |
| CG14659 | 1 | 58105 | 81408 | 1.13e6 | 8.29e5 |
| Pex23 | 1 | 48393 | 92521 | 4.71e5 | 3.99e5 |
| Pex23 | 2 | 1.57e5 | 1.78e5 | 8.59e5 | 1.69e6 |
| Pex23 | 3 | 5.76e5 | 8.54e5 | 9.63e5 | 1.66e6 |
| CG10752 | 1 | 9.52e5 | 8.05e5 | 2.02e6 | 2.06e6 |
| reb | 1 | 3.47e5 | 2.45e5 | 1.92e6 | 1.83e6 |
| Ppat-Dpck | 1 | 53845 | 66671 | 9.15e5 | 1.16e6 |
| CG42404 | 1 | 1.62e5 | 1.55e5 | 1.96e6 | 2.30e6 |
| CG4250 | 1 | 1.32e5 | 1.88e5 | 1.07e6 | 1.38e6 |
| mys | 1 | 2.74e5 | 2.12e5 | 3.09e6 | 3.16e6 |
| mys | 2 | 6.07e5 | 5.12e5 | 1.26e6 | 9.03e5 |
| CG9624 | 1 | 85874 | 78252 | 1.86e6 | 1.95e6 |
| CG31809 | 1 | 1.83e5 | 1.95e5 | 3.57e5 | 6.12e5 |
| ssp5 | 1 | 66858 | 69503 | 2.76e5 | 4.66e5 |
| Cyt-c1 | 1 | 9.61e5 | 7.57e5 | 2.32e6 | 1.72e6 |
| Cyt-c1 | 2 | 7.11e5 | 7.04e5 | 1.24e6 | 1.18e6 |
| Trissin | 1 | 1.24e5 | 1.58e5 | 2.15e6 | 2.65e6 |
| vilya | 1 | 2.13e5 | 1.57e5 | 3.52e6 | 2.75e6 |
| RhoGAP16F | 1 | 74666 | 80797 | 5.93e5 | 5.73e5 |
| CR10991 | 1 | 78826 | 1.04e5 | 2.60e6 | 2.69e6 |
| CG13996 | 1 | 2.61e5 | 1.57e5 | 1.74e6 | 1.56e6 |
| Est-P | 1 | 1.46e5 | 1.50e5 | 1.55e6 | 1.72e6 |
| Est-P | 2 | 4.38e5 | 4.32e5 | 1.66e6 | 1.38e6 |
| Elk | 1 | 9.42e5 | 1.02e6 | 2.29e6 | 2.15e6 |
| CG43428 | 1 | 66720 | 52496 | 7.80e5 | 7.80e5 |
| CG43428 | 2 | 4.57e5 | 5.24e5 | 7.90e5 | 6.88e5 |
| Arl1 | 1 | 1.81e5 | 1.77e5 | 2.27e6 | 2.13e6 |
| CG3598 | 1 | 3.88e5 | 3.85e5 | 3.33e6 | 3.34e6 |
| CG3598 | 2 | 2.03e5 | 3.13e5 | 4.64e5 | 4.40e5 |
| CG11241 | 1 | 2.34e5 | 2.44e5 | 2.88e6 | 2.44e6 |
| CG11241 | 2 | 1.14e6 | 8.33e5 | 1.47e6 | 1.23e6 |
| CG12362 | 1 | 2.81e5 | 1.13e5 | 3.12e6 | 1.70e6 |
| twi | 1 | 4.27e5 | 4.02e5 | 8.46e5 | 7.31e5 |
| twi | 2 | 3.78e5 | 3.83e5 | 7.74e5 | 8.52e5 |
| CG5011 + CG43349 | 1 | 4.84e5 | 5.89e5 | 1.57e6 | 1.46e6 |
| CG3708 | 1 | 4.17e5 | 3.40e5 | 2.85e6 | 2.28e6 |
| CG31715 | 1 | 1.14e6 | 9.00e5 | 1.38e6 | 8.91e5 |
| Cyp12a5 | 1 | 2.13e5 | 2.90e5 | 3.62e6 | 3.31e6 |
| Cyp12a5 | 2 | 6.00e5 | 3.78e5 | 5.35e5 | 5.11e5 |
| CG33722 + CG18749 | 1 | 1.98e5 | 89278 | 1.19e5 | 1.56e5 |
| CG33722 + CG18749 | 2 | 60449 | 74409 | 2.01e6 | 1.56e6 |
| CG33722 + CG18749 | 3 | 4.87e5 | 4.20e5 | 1.25e6 | 1.28e6 |
| CG15456 | 1 | 1.28e5 | 94327 | 5.39e5 | 3.27e5 |
| CG1116 | 1 | 68956 | 94225 | 1.03e6 | 1.12e6 |
| Trf4 | 1 | 8.38e5 | 7.16e5 | 2.07e6 | 1.59e6 |
| CG8206 | 1 | 30960 | 54487 | 5.00e5 | 4.48e5 |
| HUWE1 | 1 | 7.42e5 | 6.52e5 | 4.07e6 | 3.40e6 |
| Osbp | 1 | 1.08e5 | 80419 | 7.66e5 | 5.15e5 |
| CG15773 | 1 | 2.55e5 | 3.53e5 | 2.01e6 | 1.31e6 |
| hzg | 1 | 9.74e5 | 1.18e6 | 9.24e5 | 9.67e5 |
| hzg | 2 | 7.62e5 | 6.23e5 | 1.71e6 | 1.49e6 |
| CG17681 | 1 | 1.99e5 | 3.19e5 | 1.67e6 | 2.74e6 |
| CG5114 | 1 | 7.23e5 | 7.29e5 | 1.66e6 | 1.81e6 |
| Dhod | 1 | 69652 | 59956 | 5.46e5 | 4.23e5 |
| pr | 1 | 8.91e5 | 9.88e5 | 1.90e6 | 2.34e6 |
| CG40948 (retired record) | 1 | 1.05e6 | 9.12e5 | 2.57e6 | 2.13e6 |
| mtd | 1 | 72307 | 89741 | 5.36e5 | 7.30e5 |
| mtd | 2 | 70783 | 59402 | 3.72e5 | 4.53e5 |
| mtd | 3 | 78290 | 88641 | 1.86e6 | 1.90e6 |
| mtd | 4 | 9.27e5 | 5.65e5 | 2.05e6 | 9.07e5 |
| CG32221 | 1 | 2.05e5 | 1.39e5 | 6.06e5 | 5.67e5 |
| CG4098 | 1 | 2.73e5 | 1.93e5 | 3.00e6 | 2.63e6 |
| VhaSFD | 1 | 5.04e5 | 9.15e5 | 1.23e6 | 1.58e6 |
| Polr2A | 1 | 1.65e5 | 1.39e5 | 5.02e5 | 3.80e5 |
| Polr2A | 2 | 2.55e5 | 2.12e5 | 3.48e5 | 3.71e5 |
| CG15406 | 1 | 98279 | 1.09e5 | 8.58e5 | 9.40e5 |
| CG15406 | 2 | 4.38e5 | 4.27e5 | 1.90e6 | 1.35e6 |
| CG3702 | 1 | 7.08e5 | 7.82e5 | 1.47e6 | 1.43e6 |
| GILT2 | 1 | 54214 | 95544 | 7.69e5 | 7.26e5 |
| CG6813 | 1 | 1.16e5 | 1.25e5 | 1.96e6 | 1.97e6 |
| CG14232 + CG14230 | 1 | 6.61e5 | 5.80e5 | 1.37e6 | 1.08e6 |
| Cdk7 | 1 | 2.96e5 (active) | 2.31e5 | 2.09e6 | 1.61e6 |
| Cdk7 | 2 | 6.95e5 (active) | 7.27e5 | 5.86e5 | 7.49e5 |

Just “firefly reporter light, replicate 1”, for 8 of the entries above:
CG14659	58105
Pex23 #1	48393
Pex23 #2	1.57e5
Pex23 #3	5.76e5
CG10752	9.52e5
reb	3.47e5
Ppat-Dpck	53845
CG42404	1.62e5
